# PubChem BioAssay AID590 (National Center for Advancing Translational Sciences (NCATS), 2007)
# The whole screen tested about 59,000 compounds, of which about 6,500 (11%) were called active. The shares of active, inactive and inconclusive entries below differ from those in the screen. Rule as the data show it: active = max dye-equivalent concentration above about 10 nM; inconclusive = mostly about 1.1 nM to 9.6 nM; inactive = weaker than that.
# Assay: qHTS Assay for Spectroscopic Profiling in A350 Spectral Region
# Conditions: Compound autofluorescence, 340/450 nm, Alexa 350 dye-equivalents; hits give high values
row,SMILES,max dye-equivalent concentration
1,COc1ccc2[nH]c3ccccc3c2c1,inconclusive: 9.5 nM
2,CN1/C(=C\C(=O)COC(=O)Cn2nnc(-c3ccccc3)n2)C(C)(C)c2ccccc21,active: 35 nM
3,Cc1cc(Oc2ccccc2)nc(OCC#N)n1,inactive
4,COc1ccc(C[N+](C)(C)N)cc1OC,inactive
5,O=C(CC1CCCCC1)N1CCN(c2ccccn2)CC1,inactive
6,CC(C)(C)n1nnnc1C(c1cccc(C#N)c1)N1CCN2CCCC2C1 (stereo not given),inconclusive: 1.5 nM
7,c1ccc(-c2cc(-c3nnc4sc(-c5ccccn5)nn34)[nH]n2)cc1,inactive
8,O=C(Nc1ccc2c(c1)OCCO2)c1ccncc1,inactive
9,C=CCn1c(NC(=O)c2ccco2)c(S(=O)(=O)c2ccccc2)c2nc3ccccc3nc21,active: 470 nM
10,CCc1cccc(CC)c1NC(=O)CN(CC(=O)O)CC(=O)O,active: 110 nM
11,CCCn1c(=O)c2ccccc2n2c(SCc3nc4ccccc4s3)nnc12,inconclusive: 1.6 nM
12,N#Cc1cn(Cc2cccc(Cl)c2)c2ccccc12,inconclusive: 9.3 nM
13,CCn1c(SCc2nc3ccccc3c(=O)[nH]2)nc2ccccc2c1=O,inconclusive: 1.4 nM
14,CC(C)CN(C(=O)COC(=O)CCc1c[nH]c2ccccc12)C1CCS(=O)(=O)C1 (stereo not given),inconclusive: 1.4 nM
15,CC(=O)Nc1ccc(S(=O)(=O)N2CCSC2C(=O)O)cc1 (stereo not given),inconclusive: 5.1 nM
16,COc1ccc(-n2c(SCC(=O)N3CCCC(C)C3)nnc2-c2cccnc2)cc1 (stereo not given),inconclusive: 1.1 nM
17,Cc1ccc(C2C(C(=O)c3sc(C)nc3C)=C(O)C(=O)N2CCN2CCOCC2)o1 (stereo not given),inconclusive: 1.7 nM
18,COc1cccc(C2/C(=C(/O)c3ccncc3)C(=O)C(=O)N2CCCN2CCOCC2)c1OC (stereo not given),inconclusive: 1.8 nM
19,O=C(O)c1ccccc1C1c2ccccc2Oc2ccccc21,inconclusive: 4.5 nM
20,COC(=O)c1ccccc1NC(=O)c1ccc(NS(C)(=O)=O)cc1,inconclusive: 1.4 nM

# An excerpt of these results, as tab-separated lines.
row	SMILES	max dye-equivalent concentration
7	c1ccc(-c2cc(-c3nnc4sc(-c5ccccn5)nn34)[nH]n2)cc1	inactive
8	O=C(Nc1ccc2c(c1)OCCO2)c1ccncc1	inactive
9	C=CCn1c(NC(=O)c2ccco2)c(S(=O)(=O)c2ccccc2)c2nc3ccccc3nc21	active: 470 nM
10	CCc1cccc(CC)c1NC(=O)CN(CC(=O)O)CC(=O)O	active: 110 nM

# (continued)

row,SMILES,max dye-equivalent concentration
1,O=C(O)CCCC[C@@H]1SC[C@H]2NC(=O)N[C@H]12,inactive
2,CC(O)CNc1nc2c(c(=O)n(C)c(=O)n2C)n1Cc1cccc(Br)c1 (stereo not given),inconclusive: 4.7 nM
3,O=C(NCc1cccnc1)C1CCN(S(=O)(=O)c2cccnc2)CC1,inconclusive: 4.4 nM
4,CCNS(=O)(=O)c1ccc(NC(=O)c2ccccc2OCC)cc1,inactive
5,COC(=O)c1c(NC(=O)c2nc3ncccn3n2)sc(C(=O)N(C)C)c1C,inconclusive: 3.3 nM
6,CCN(CCO)Cc1cc(=O)oc2c(C)c(C)ccc12,inconclusive: 2.5 nM
7,COc1ccc2c(c1)c1ccccc1n2C,active: 39 nM
8,CC1=C(C#N)C(c2ccoc2)C(C(=O)OCc2ccccc2)=C(N)S1 (stereo not given),inactive
9,O=C(Nc1ccccc1C(=O)NCCCn1ccnc1)c1ccccc1,inactive
10,Cc1ccc2cccc(S(=O)(=O)Nc3c(C)n(C)n(-c4ccccc4)c3=O)c2n1,inactive
11,CCc1cc(=O)oc2c(C)c(O)c(CN3CCCCC3)cc12,active: 13000 nM
12,COc1ccccc1CC(=O)Nc1ccc(O)cc1C(=O)O,inconclusive: 2.7 nM
13,O=C(CNS(=O)(=O)c1ccc(C(=O)N2CCOCC2)cc1)N1CCOCC1,inconclusive: 1.8 nM
14,CN(C(=O)c1ccncc1)c1nnc(-c2ccncc2)s1,inconclusive: 7 nM
15,CS(=O)(=O)N1CCCC(C(=O)NCCc2ccccc2)C1 (stereo not given),inconclusive: 1.2 nM
16,Cc1[nH]nc2c1C(c1ccccc1F)CC(=O)N2 (stereo not given),inconclusive: 1.1 nM
17,O=C(NCc1ccncc1)c1nnc(Cc2c(F)cccc2Cl)o1,inconclusive: 1.1 nM
18,O=C1CC2(CCCCC2)Oc2ccc(OCC(=O)N3CCOCC3)cc21,active: 1100 nM
19,O=C(CSc1nnnn1-c1ccccc1)CC(=O)Nc1ccc(Cl)cc1,inactive
20,CCOC(=O)c1c(C)[nH]c(C(=O)OCC(=O)N2c3ccccc3CC2C)c1C (stereo not given),inconclusive: 1.1 nM

row,SMILES,max dye-equivalent concentration
1,CC1CCN(c2oc(-c3ccccc3Cl)nc2C#N)CC1,active: 31 nM
2,O=C(c1cccc(F)c1)N1CCC2(CC1)CN(c1ccccc1)C2,inactive
3,CC1=CC(C)(C)Nc2cc(C)c(C)cc21,active: 25 nM
4,CC(C)c1cc(NCCCN2CCOCC2)n2c(nc3ccccc32)c1C#N,active: 4000 nM
5,COc1ccccc1C(=O)NCCCN1CCCC1=O,inconclusive: 4.5 nM
6,c1ccc(NN(Cc2cnccn2)c2ccccc2)cc1,inconclusive: 7.3 nM
7,CC(=O)N=C1SC2CS(=O)(=O)CC2N1c1cccc(Cl)c1Cl (stereo not given),inconclusive: 1.1 nM
8,CC1CCCC(C(=O)OCc2ccccc2)N1 (stereo not given),inconclusive: 3 nM
9,Cc1ccc(C2C3=C(CC(C)(C)CC3=O)Nc3[nH]c(=S)[nH]c(=O)c32)cc1 (stereo not given),inconclusive: 5.9 nM
10,Cc1onc(-c2ccccc2Cl)c1C(=O)OCC(=O)c1ccc2c(c1)OCCO2,inconclusive: 5.9 nM
11,CCS(=O)(=O)N1CCC(C(=O)N2CCc3ccccc3C2)CC1,inconclusive: 2.9 nM
12,Cc1cc(NS(=O)(=O)c2ccc(NC(=O)CN3C(=O)c4ccccc4C3=O)cc2)nc(C)n1,inactive
13,O=C(O)c1ccccc1S,inconclusive: 2.1 nM
14,CN(C)c1ncc2nc(-c3cc(F)cc(F)c3)c(=O)n(CCC#N)c2n1,inconclusive: 5.5 nM
15,CS(=O)(=O)N1CCCC(C(=O)NCCc2ccc(Cl)cc2)C1 (stereo not given),inconclusive: 1.9 nM
16,CN(CC(=O)O)Cc1c(O)c(Cl)cc(Cl)c1Cl,inactive
17,O=c1sc(Nc2ccccc2)nc2ccsc12,inconclusive: 3.3 nM
18,O=C(c1ccc(Cn2cc(Cl)cn2)o1)N1CCN(Cc2ccc3c(c2)OCO3)CC1,inactive
19,c1csc(-c2csc(-c3cccs3)n2)c1,inconclusive: 5.2 nM
20,CC1CCN(S(=O)(=O)c2ccc3[nH]cc(C(=O)NCCN4CCOCC4)c(=O)c3c2)CC1,inconclusive: 3.5 nM
